At least one structure is not confirmed: it was looked up by name or label, or the drawing left a doubt.
Target: angiotensin II receptor
Assay: Displacement of 125I- or 3H-angiotensin II from receptor preparations from various organs (liver, lung, adrenal gland, brain etc.)
Format: binding
Conditions: Table 1; radioligand displacement, 25° C., 90 min, pH 7.4
Description: Alternatively, the affinity of the compounds of the formula I for the angiotensin II receptor can be determined by measurement of the ^125 I-angiotensin II or ^3 H-angiotensin II displacement of receptor preparations from various organs (liver, lung, adrenal gland, brain etc.).
To this end, the prepared membranes are suspended in an incubation buffer ([…], pH 7.4, containing 135 mM NaCl, 10 mM KCl, 10 mM MgCl2, 5 mM glucose, 0.2% bovine serum albumin and the protease inhibitors PMSF, 0.3 mM, and bacitracin, 0.1 mM) and incubated at 25° C. for 90 min together with the radioactively labeled angiotensin II and various concentrations of the compounds to be tested. Bound and free radioligand are then separated by filtration through micro glass fiber filters (GF51, Schleicher and Schull) in a cell collector (SKATRON).
The degree of displacement of the radioligand from the receptor by the test compounds is determined by measurement of the receptor-bound radioactivity on the filters by means of a beta- or gamma-spectrometer. The amount of the displacement of the radioligand from the receptor by the test compounds is indicated by the IC50, i.e. the concentration of the inhibitor which displaces 50% of the bound radioligand from the receptor. […]

Compound	IC50
CCCCc1nc(Cl)c(C=O)n1Cc1ccc(-c2ccccc2S(=O)(=O)NC(=O)Nc2ccccn2)cc1 [Example 3, 1-[(2'-pyridyl-2-aminocarbonylaminosulfonylbiphenyl-4-yl)methyl]-2-n-butyl-4-chloroimidazole-5-carboxaldehyde]	1.1 µM
CCCCc1nc(SC)c(C(=O)O)n1Cc1ccc(-c2ccccc2S(=O)(=O)NC(=O)NCCc2ccccn2)cc1 [Example 57, 1-[(2'-pyridylethyl-2-aminocarbonylaminosulfonylbiphenyl-4-yl)methyl]-2-n-butyl-4-methylthioimidazol-4-carboxylic acid]	1.1 µM

Reference: patent publication US5482957A, “Azole derivatives, process for their preparation and their use” (Hoechst Aktiengesellschaft, priority 1991, dated 1996)
